Test results taken from PubChem BioAssay AID720711 (National Center for Advancing Translational Sciences (NCATS), 2013).
Hit rate of the full screen: of about 360,000 compounds, about 290 (0.081%) were called active. The shares of active, inactive and inconclusive entries below differ from those in the screen. The call rests on the fitted dose curve; in most records, active means well fitted activation curve with a large enough effect; inconclusive means small, poorly fitted or top-dose-only effect; inactive means no such curve, though single readings can be large or run the other way. Potencies of inconclusive entries are doubtful fits and often do not repeat.
Further: nearly all actives have a fitted effect of over 50% in size.
Potency means the concentration at half of the fitted maximal effect.

Amino acid sequences for entries named in this document (tags omitted).
UniProt Q8WZA2, whole entry, looked up: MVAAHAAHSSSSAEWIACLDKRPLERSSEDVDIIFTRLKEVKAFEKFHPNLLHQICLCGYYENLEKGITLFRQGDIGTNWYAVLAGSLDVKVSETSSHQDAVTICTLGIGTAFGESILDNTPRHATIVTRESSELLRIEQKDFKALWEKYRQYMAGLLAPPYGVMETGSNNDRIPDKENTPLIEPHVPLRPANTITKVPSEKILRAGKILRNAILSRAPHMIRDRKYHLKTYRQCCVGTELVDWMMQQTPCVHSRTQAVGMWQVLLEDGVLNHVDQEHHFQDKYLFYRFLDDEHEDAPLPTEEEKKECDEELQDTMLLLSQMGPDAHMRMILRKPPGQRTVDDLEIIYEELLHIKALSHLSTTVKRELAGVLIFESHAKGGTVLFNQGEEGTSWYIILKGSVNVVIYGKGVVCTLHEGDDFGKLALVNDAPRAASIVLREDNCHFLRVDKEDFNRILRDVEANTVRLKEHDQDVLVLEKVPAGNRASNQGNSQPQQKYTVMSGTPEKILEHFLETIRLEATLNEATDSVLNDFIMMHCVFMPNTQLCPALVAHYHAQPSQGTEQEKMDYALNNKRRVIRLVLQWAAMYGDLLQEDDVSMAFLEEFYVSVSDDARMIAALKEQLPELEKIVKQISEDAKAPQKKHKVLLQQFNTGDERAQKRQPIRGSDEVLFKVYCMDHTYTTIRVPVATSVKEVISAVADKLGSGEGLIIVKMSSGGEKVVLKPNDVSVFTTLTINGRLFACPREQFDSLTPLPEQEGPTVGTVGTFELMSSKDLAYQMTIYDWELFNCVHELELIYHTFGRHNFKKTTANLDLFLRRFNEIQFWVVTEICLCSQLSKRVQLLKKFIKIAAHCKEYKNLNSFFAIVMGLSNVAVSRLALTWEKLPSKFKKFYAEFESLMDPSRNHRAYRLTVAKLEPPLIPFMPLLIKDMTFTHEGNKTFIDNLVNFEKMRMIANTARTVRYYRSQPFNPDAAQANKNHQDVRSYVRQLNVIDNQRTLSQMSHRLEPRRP

These compounds were tested against Rap guanine nucleotide exchange factor 4 (Homo sapiens) (UniProt Q8WZA2) (assay: qHTS for Agonist of cAMP-regulated guanine nucleotide exchange factor 4 (EPAC2): primary screen). Conditions: biochemical qHTS; Potency: EPAC2 activation unless noted; activation: at 154 µM (top of the series), 100% = 6.5 mM cAMP response unless noted.
Description: In multi-cellular eukaryotic organisms, the effects of cAMP are transduced by two ubiquitously-expressed intracellular cAMP receptors, the classic protein kinase A/cAMP-dependent protein kinase (PKA/cAPK) and the more recently discovered exchange protein directly activated by cAMP/cAMP-regulated guanine nucleotide exchange factor (EPAC/cAMP-GEF). Both PKA and EPAC are ubiquitously expressed in all tissues, and an increase in intracellular cAMP levels will lead to the activation of both PKA and EPAC. Therefore, careful dissections of the individual role and relative contribution of EPAC and PKA within the overall cAMP signaling in various model systems are critical for further elucidating the mechanism of cAMP signaling. To date no EPAC-specific antagonists and agonist, as well as isoform-specific agonists have been reported, and developing EPAC-specific pharmacological probes to determine the physiological functions that EPAC play in the overall cAMP-mediated signaling remains a major challenge within the research field. Furthermore, identified regulators of EPAC may lead to new mechanism-based therapeutic strategies specifically targeting the EPAC / cAMP-signaling components as EPAC has been implicated to play important roles in major human pathological conditions such as diabetes, heart disease, and cancer.
This qHTS will be used to screen the Molecular Libraries Small Molecule Repository (MLSMR) as a concentration-titration series using the NCGC unique quantitative screening (qHTS) platform to find activators for EPAC2. In addition, this assay will also be used as a counterscreen for the EPAC1 qHTS. This fluorescent based assay is developed and validated for EPAC2 that measures exchange using EPAC effector Rap1 complex with BODIPY-GDP, a GDP analog with a tethered fluorophores. Activators are identified by monitoring the change in fluorescence signal as the exchanged free BODIPY-GDP has a reduced fluorescence compared to Rap1-bound BODIPY-GDP. […] in signal (activation) is the desired outcome for the EPAC2 agonist while no activity in this assay is desired for the EPAC1 agonist counterscreen.
[1] de Rooij, J., Zwartkruis, F. J., Verheijen, M. H., Cool, R. H., Nijman, S. M., Wittinghofer, A., and Bos, J.L. (1998) Nature 396, 474-477
[2] Kawasaki, H., Springett, G. M., Mochizuki, N., Toki, S., Nakaya, M., Matsuda, M., Housman, D. E., and Graybiel, A. M. (1998) Science 282, 2275-2279
NIH Chemical Genomics Center [NCGC]
NIH Molecular Libraries Probe Centers Network [MLPCN]
Assay Submitter (PI): Xiaodong Cheng, The University of Texas, Medical Branch
Briefly, three uL of reagents (100 nM EPAC2, 250 nM RAP1B-BODIPY-GDP, 50 uM GDP) were dispensed into a 1536-well Greiner black solid-bottom medium binding assay plate. Controls and test compounds (23 nL) were transferred to the plate via a Kalypsys pin tool equipped with a 1536-pin array. The plates were centrifuged at 1,000 rpm for 15 seconds followed by 5 minute incubation at room temperature. The assay plates were read at 5 minute intervals for 30 minutes in the ViewLux plate reader using 480nm excitation and 540nm emission filters. The results were normalized to the agonist positive control of 6.5 mM cAMP.
With `COc1ccc(N2CSC3=C(C#N)C(c4cccc(OC)c4OC)CC(=O)N3C2)cc1` (stereo not given) the “activation” value was inactive: 3.97%.
In the case of `COC(=O)c1cc(NC(=O)CN2CCOCC2)cc(C(=O)OC)c1`, the Potency is reported as inconclusive: 3.16 µM [activator, partial curve].
With `CCOC(=O)[C@H](O)[C@@H](O)c1cccc([C@H](O)[C@@H](O)C(=O)OCC)c1` the “activation” value was inactive: 13.2%.
With `Cc1ccc(CN2CCN(/N=C\C=C\c3ccccc3)CC2)cc1` the Potency was inconclusive: 126 µM [activator, single point].
`Cc1ccc(NS(=O)(=O)c2ccc(-c3coc(C)n3)cc2)c(Cl)c1` was tested, and the Potency was inconclusive: 100 µM [activator, partial curve].
`COc1ccc(CN(C(=S)Nc2ccccc2)C2CC(=O)N(c3ccc(Cl)cc3)C2=O)cc1` (stereo not given) was tested, and the Potency was inconclusive: 89.1 µM [activator, partial curve].
`Cc1ccc(S(=O)(=O)c2ccc([N+](=O)[O-])cn2)cc1` was tested, and the “activation” value was inactive: 3.86%.
For `CC(C)=CCC1=C(OCC(=O)O)C(=O)c2ccccc2C1=O`, the “activation” value was inactive: 22.9%.
`C=CCC1(C(=O)NCCO)CCN(C(=O)OC(C)(C)C)CC1` was tested, and the Potency was inconclusive: 22.4 µM [activator, full curve, poor fit].
With `CC(=Nc1cccc(C)c1)c1sc2ccccc2c1O` the Potency was inconclusive: 89.1 µM [activator, partial curve].
In the case of `Cc1csc(Sc2ccc([N+](=O)[O-])cc2C(=O)OCC(=O)NC(=O)NC(C)(C)C)n1`, the Potency is reported as inconclusive: 126 µM [activator, single point].
With `Cc1ccc2oc(=O)c(/C=C(\O)c3ccccc3)nc2c1` the Potency was active: 89.1 µM.
`O=C(Cn1ccc(=O)[nH]c1=O)c1ccc([N+](=O)[O-])o1` was tested, and the Potency was inconclusive: 112 µM [activator, partial curve].
For `C=CCc1cccc(/C=N/NC(=O)CCCNc2ccc(C)cc2)c1O`, the Potency was inconclusive: 112 µM [activator, partial curve].
`CCN(c1ccc(N=Cc2c(O)n(Cc3ccc(OC)cc3)c(=O)c3ccccc23)cc1)C(C)C` was tested, and the Potency was inconclusive: 17.8 µM [activator, partial curve, poor fit].
For `CC1=NN(c2nc(-c3ccccc3)cs2)C(=O)C1`, the “activation” value was inactive: 2.4%.
In the case of `COc1ccc2c(c1)C(C)CC(C)(C)N2C(=O)NC1CCCCC1` (stereo not given), the Potency is reported as inconclusive: 50.1 µM [activator, single point].
In the case of `CC(C)OC(=O)CSc1nnc(-c2ccccn2)n1-c1ccccc1`, the activation is reported as inconclusive: 42.4% [activator] [at 15.6 µM, 100% = 6.5 mM cAMP response].
In the case of `CC(C)COc1ccc(CNC(=S)NCc2ccccc2)cc1`, the Potency is reported as inconclusive: 89.1 µM [activator, partial curve].
For `NS(=O)(=O)c1ccc(NC(=S)NC(=O)c2ccco2)cc1`, the Potency was inconclusive: 100 µM [activator, partial curve].
For `CC(C)(C(=O)O)n1cncn1`, the Potency was inconclusive: 112 µM [activator, single point].
With `CCOC(=O)c1c(NC(=O)c2c(C)noc2C)sc2c1CCCCC2` the activation was inconclusive: 145% [activator] [at 15.6 µM, 100% = 6.5 mM cAMP response].
In the case of `CCOc1ccc(C2C(C(=O)c3ccco3)=C(O)C(=O)N2CCN2CCOCC2)cc1OCC` (stereo not given), the “activation” value is reported as inactive: -4.15%.
In the case of `O=C(Cc1ccccc1)Nn1c(O)c(/C=C2\C=Nc3ccccc32)sc1=S`, the Potency is reported as active: 100 µM.
In the case of `COC(CNC(=O)c1ccc2c3c(onc13)-c1ccccc1C2=O)OC`, the Potency is reported as active: 50.1 µM.
In the case of `CN1CCN(C(=O)c2ccc(COc3ccc(C(C)(C)C)cc3)o2)CC1`, the activation is reported as inconclusive: 46.5% [activator] [at 15.6 µM, 100% = 6.5 mM cAMP response].
With `CCN(CC)C(=O)Cn1c(C)c(/C=C/c2cc[n+](C)cc2)c2ccccc21` the Potency was inconclusive: 100 µM [activator, partial curve].
For `CC(C)(C)C(=O)C(Cl)C(=O)Nc1ccccc1` (stereo not given), the “activation” value was inactive: 0.956%.
For `COc1cc(C(=O)C(=O)N2CCC(Cc3ccccc3)CC2)cc2ccccc12`, the “activation” value was inactive: 10.6%.
With `O=C1c2cccc3c(N4CCCCC4)ccc(c23)C(=O)N1c1ccccc1O` the Potency was active: 100 µM.
In the case of `COc1ccc(NS(=O)(=O)c2csc(C(=O)Nc3ccccc3)c2)cc1`, the Potency is reported as inconclusive: 112 µM [activator, partial curve].
With `CCc1nc2c(OCc3c(C)noc3C)cccn2c1N(C=O)Cc1ccccc1` the “activation” value was inactive: 4.77%.
With `CN1c2ccccc2C(C)(C)C12C=Nc1c(ccc3ccccc13)O2` (stereo not given) the “activation” value was inactive: 11.4%.
With `O=C(CSc1ncnc2c1nnn2-c1ccc(F)cc1)NCc1ccco1` the Potency was inconclusive: 5.01 µM [activator, full curve, poor fit].
With `COc1c(C)cccc1C(=O)NC(=S)Nc1ccc2c(c1)Cc1ccccc1-2` the Potency was inconclusive: 50.1 µM [activator, single point].
With `C[C@@H]1CN([C@H](C)CO)S(=O)(=O)c2ccc(Br)cc2O[C@@H]1CN(C)Cc1ccc(C(=O)O)cc1` the “activation” value was inactive: 2.37%.
`COc1cccc(C2c3cc4c(cc3OC(N3CCOCC3)C2C)OCO4)c1O` (stereo not given) was tested, and the Potency was inconclusive: 20 µM [activator, full curve, poor fit].
For `CC(=O)Nc1cnc(-c2ccc3c(c2)OCO3)cn1`, the “activation” value was inactive: 8.78%.
For `Cc1cccc(NC(=S)NC(=O)c2ccc(-c3ccccc3)cc2)n1`, the “activation” value was inactive: 13.5%.
With `CN1CCCC(OC(=O)CCCCC(=O)OC2CCCN(C)C2)C1` (stereo not given) the Potency was inconclusive: 25.1 µM [activator, single point].
`CC(C)CNS(=O)(=O)c1ccc(Br)cc1N1CCC[C@@H]1CO` was tested, and the “activation” value was inactive: 1.66%.
`CN(C)c1ccc(/C=C(\C#N)C(=O)c2ccccc2)cc1` was tested, and the Potency was inconclusive: 50.1 µM [activator, partial curve].
`C=CCOn1c(=O)c(-c2cc3ccccc3o2)[n+]([O-])c2ccccc21` was tested, and the Potency was inconclusive: 126 µM [activator, single point].
With `CCCCN(C(=O)C1=COCCO1)c1c(N)n(CCC)c(=O)[nH]c1=O` the Potency was inconclusive: 126 µM [activator, single point].
`Nc1ncnc2nc(Sc3ccc(Cl)cc3)[nH]c12` was tested, and the Potency was inconclusive: 126 µM [activator, single point].
In the case of `COC(=O)c1cc(=O)c2c(C)nc(C(Cl)(Cl)Cl)nc2[nH]1`, the Potency is reported as inconclusive: 112 µM [activator, partial curve].
With `O=C1c2cccc3c(N4CCCCC4)ccc(c23)C(=O)N1c1cccc(O)c1` the Potency was active: 100 µM.
`CCC1CCC2(CC1)NC(=O)N(CC(=O)N1CCc3ccccc31)C2=O` (stereo not given) was tested, and the Potency was inconclusive: 50.1 µM [activator, single point].
In the case of `COc1ccc(NC(=O)CC2CC3CCC2C3)cc1S(=O)(=O)N1CCOCC1` (stereo not given), the Potency is reported as inconclusive: 20 µM [activator, partial curve].
In the case of `N#Cc1c(N2CCCC2)nc(N)c2c(N)nc(N3CCCC3)cc12`, the Potency is reported as inconclusive: 100 µM [activator, partial curve].
For `CCOc1cc(/C=C2\CCCc3c2nc2ccccc2c3C(=O)O)ccc1OC`, the Potency was active: 100 µM.
For `O=C(CCNS(=O)(=O)c1ccccc1C(F)(F)F)NCCCN1CCOCC1`, the Potency was inconclusive: 126 µM [activator, single point].
In the case of `COc1ccc(CNC(=S)N/N=C/c2ccc(OC)c(OC)c2)cc1`, the activation is reported as inconclusive: 54.9% [activator] [at 15.6 µM, 100% = 6.5 mM cAMP response].
With `CC1(C(=O)NS(=O)(=O)c2cccc(OC(F)F)c2)CCN1C(=O)C1CCCCC1` (stereo not given) the “activation” value was inactive: 8.53%.
With `CC1=CC2=NC(=O)/C(=C/c3coc4ccc(Cl)cc4c3=O)C(=N)N2O1` the Potency was inconclusive: 126 µM [activator, single point].
With `CCN1CCN(Cc2ccc(NC(=O)c3cc(NC(=O)c4cncc(-c5ccc(C#N)cc5)c4)cc(OC)c3)cc2C(F)(F)F)CC1` the Potency was inconclusive: 56.2 µM [activator, full curve].
With `COCCN(C(=O)CSc1nnc(-c2ccco2)n1C)c1c(N)n(CC(C)C)c(=O)[nH]c1=O` the “activation” value was inactive: 8.46%.
With `Brc1ccc(C2=CC(c3ccco3)n3ncnc3N2)cc1` (stereo not given) the Potency was inconclusive: 100 µM [activator, partial curve].
In the case of `CCN(CC)c1ccc2c(-c3ccc(S(=O)(=O)O)cc3S(=O)(=O)[O-])c3ccc(=[N+](CC)CC)cc-3oc2c1`, the Potency is reported as inconclusive: 112 µM [activator, single point].
For `O=[N+]([O-])c1cccc(/C=N/N2CCN(c3ccccn3)CC2)c1`, the “activation” value was inactive: 1.29%.
With `CCNc1nc(NCC)n2c(SCC(=O)Nc3ccc(CC)cc3)nnc2n1` the “activation” value was inactive: -1.39%.
For `COc1cc(/C=N/NC2=NC(C)(C)Cc3ccccc32)cc(OC)c1OC`, the Potency was inconclusive: 112 µM [activator, single point].
In the case of `COc1ccc(OC)c2nc3c(C(=O)NCCN(C)C)cccc3nc12`, the “activation” value is reported as inactive: 0.164%.
With `CCOc1ccc(/C=N/NC(=O)c2cc(-c3ccco3)nc3ccccc23)cc1` the “activation” value was inactive: -0.87%.
With `Clc1cccc(N2CCN(Cc3ccc(Br)o3)CC2)c1` the Potency was inconclusive: 63.1 µM [activator, partial curve].
`CCn1c(=O)cc(OCC(=O)NCCCN2CCCC2=O)c2ccccc21` was tested, and the “activation” value was inactive: 5.08%.
`CCN(CC)c1ccc(N=Cc2ccc(N(CC)CC)cc2O)cc1` was tested, and the Potency was inconclusive: 126 µM [activator, partial curve, poor fit].
`Cc1nn(C)c(C)c1N=Cc1c(O)ccc2ccccc12` was tested, and the Potency was inconclusive: 112 µM [activator, single point].
`CC(=O)Nc1ccc(NC(=O)C2(C)CC2(Cl)Cl)cc1` (stereo not given) was tested, and the “activation” value was inactive: 3.81%.
With `CN1CC=C2C(C#N)=C(N)C(C#N)(C#N)C(c3ccsc3)C2C1` (stereo not given) the Potency was inconclusive: 100 µM [activator, partial curve].
